Results are given in words; binding and its absence hold for the method and conditions named. A result given as binding can be weak or reduced; the word gives no strength.
Molecular target: T1, Ycf4 (UniProt P56788)
T1 sequence: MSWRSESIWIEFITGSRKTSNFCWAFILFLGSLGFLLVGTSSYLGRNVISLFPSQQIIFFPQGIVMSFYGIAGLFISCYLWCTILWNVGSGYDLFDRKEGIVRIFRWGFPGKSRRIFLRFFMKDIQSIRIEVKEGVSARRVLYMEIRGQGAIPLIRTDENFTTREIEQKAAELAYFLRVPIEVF
Experiment: two-hybrid; split-ubiquitin yeast two-hybrid (SUY2H); baits as Cub-PLV fusions (pMetYCgate), preys (CC1, CC2 of Ycf1) as Nub fusions (pNXgate32), cotransformed into yeast strain THY.AP4; interaction selected on synthetic medium lacking Leu, Trp and His

In the case of “CC1 domain of the Ycf1 protein (Arabidopsis thaliana) (domain or fragment)”, the binding is reported as “binds”.

With “CC2 domain of the Ycf1 protein (Arabidopsis thaliana) (domain or fragment)” the binding was “binds”.
